Consider three substances from paper PMC8627557.

Amino acid sequences for entries named in this document (tags omitted). A change or cut given only in a name is not applied to a line headed by its entry.
UniProt Q9H3S7: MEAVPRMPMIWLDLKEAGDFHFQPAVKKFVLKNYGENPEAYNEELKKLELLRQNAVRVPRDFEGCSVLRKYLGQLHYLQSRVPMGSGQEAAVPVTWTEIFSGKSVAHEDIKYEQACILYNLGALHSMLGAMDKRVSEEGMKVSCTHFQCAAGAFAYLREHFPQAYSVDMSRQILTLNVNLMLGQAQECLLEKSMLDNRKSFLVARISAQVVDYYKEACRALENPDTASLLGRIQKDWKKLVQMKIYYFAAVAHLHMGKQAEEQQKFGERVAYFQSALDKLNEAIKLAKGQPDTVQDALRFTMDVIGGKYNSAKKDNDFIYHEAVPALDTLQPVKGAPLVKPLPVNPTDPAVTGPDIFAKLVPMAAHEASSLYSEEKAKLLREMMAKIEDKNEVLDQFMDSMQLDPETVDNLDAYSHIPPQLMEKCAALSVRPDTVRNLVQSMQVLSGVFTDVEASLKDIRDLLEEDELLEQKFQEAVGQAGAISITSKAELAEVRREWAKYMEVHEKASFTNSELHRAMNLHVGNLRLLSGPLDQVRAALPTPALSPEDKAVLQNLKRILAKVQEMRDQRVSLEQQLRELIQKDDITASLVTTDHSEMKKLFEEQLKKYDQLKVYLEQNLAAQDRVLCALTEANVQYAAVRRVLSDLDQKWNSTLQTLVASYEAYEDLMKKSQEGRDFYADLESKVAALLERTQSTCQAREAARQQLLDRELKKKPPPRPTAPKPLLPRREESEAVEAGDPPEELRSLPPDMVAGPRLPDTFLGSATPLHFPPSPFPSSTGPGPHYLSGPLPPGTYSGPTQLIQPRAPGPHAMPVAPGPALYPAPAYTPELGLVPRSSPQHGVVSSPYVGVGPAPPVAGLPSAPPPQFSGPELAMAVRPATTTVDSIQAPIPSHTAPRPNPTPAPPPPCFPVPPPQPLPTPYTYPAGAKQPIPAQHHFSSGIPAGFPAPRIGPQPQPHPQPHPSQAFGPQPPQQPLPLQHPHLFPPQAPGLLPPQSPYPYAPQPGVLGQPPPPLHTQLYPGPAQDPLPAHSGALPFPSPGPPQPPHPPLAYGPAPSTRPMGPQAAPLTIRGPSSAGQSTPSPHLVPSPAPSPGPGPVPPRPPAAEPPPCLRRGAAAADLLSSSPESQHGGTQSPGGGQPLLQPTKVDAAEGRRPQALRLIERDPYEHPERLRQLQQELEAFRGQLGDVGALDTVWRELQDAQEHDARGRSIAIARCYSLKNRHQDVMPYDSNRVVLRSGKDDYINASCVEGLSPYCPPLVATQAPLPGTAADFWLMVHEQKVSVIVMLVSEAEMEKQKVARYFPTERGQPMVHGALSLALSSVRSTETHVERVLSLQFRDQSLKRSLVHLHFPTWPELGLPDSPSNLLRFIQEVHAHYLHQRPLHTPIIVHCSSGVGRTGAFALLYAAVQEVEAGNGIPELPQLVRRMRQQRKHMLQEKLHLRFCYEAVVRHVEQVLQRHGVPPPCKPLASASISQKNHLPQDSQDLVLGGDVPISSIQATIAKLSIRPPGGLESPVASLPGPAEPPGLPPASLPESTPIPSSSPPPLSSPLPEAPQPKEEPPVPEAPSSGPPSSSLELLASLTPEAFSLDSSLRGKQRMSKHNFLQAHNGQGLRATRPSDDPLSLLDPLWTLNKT
UniProt Q15276: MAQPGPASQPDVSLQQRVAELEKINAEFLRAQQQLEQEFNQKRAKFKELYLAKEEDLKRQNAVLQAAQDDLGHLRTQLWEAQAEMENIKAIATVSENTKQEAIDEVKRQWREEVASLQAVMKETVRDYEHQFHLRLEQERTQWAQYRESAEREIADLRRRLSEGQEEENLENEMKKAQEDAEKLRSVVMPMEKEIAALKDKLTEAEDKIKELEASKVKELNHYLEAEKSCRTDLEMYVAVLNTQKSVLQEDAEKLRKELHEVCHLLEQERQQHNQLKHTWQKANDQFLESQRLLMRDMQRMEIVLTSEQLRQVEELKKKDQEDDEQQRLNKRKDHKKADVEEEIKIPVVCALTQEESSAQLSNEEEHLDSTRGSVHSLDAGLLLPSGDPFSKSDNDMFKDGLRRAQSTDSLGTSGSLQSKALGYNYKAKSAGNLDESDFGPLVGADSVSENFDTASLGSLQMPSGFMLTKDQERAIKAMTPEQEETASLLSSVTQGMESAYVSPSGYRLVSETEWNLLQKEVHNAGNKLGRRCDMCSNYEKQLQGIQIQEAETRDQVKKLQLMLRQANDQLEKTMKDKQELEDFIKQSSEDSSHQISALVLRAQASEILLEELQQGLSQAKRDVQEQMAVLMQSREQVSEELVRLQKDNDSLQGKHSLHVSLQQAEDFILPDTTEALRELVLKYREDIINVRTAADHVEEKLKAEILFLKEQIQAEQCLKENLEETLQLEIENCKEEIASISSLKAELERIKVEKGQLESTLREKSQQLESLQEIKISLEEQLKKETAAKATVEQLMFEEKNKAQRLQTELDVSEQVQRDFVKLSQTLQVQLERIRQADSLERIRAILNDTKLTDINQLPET

Results are given in words; binding and its absence hold for the method and conditions named. Binding seen in cells or lysates may run through a third protein. Binding can be weak; no strength is given.

In this assay the target is full-length HA–HD-PTP (human) (UniProt Q9H3S7). The assay is described as follows: co-IP; lysates of HEK293T cells transfected with HA–HD-PTP constructs (with co-transfected GFP–Rabaptin-5 constructs, or endogenous Rabaptin-5); IP with anti-HA in IP buffer (25 mM Tris-HCl pH 7.5, 150 mM NaCl, 0.5% IGEPAL CA-630), 4°C; western blot. On the technique in general: In western blotting, separated proteins are transferred to a membrane and probed.

Turning to “GFP–Rabaptin-5 CC2-1 (from UniProt Q15276) (domain or fragment)”, the binding result is “binds”.
“GFP–Rabaptin-5 ΔCC2-1 (from UniProt Q15276)”: the binding entry is “binds”.
Then “GFP–Rabaptin-5 ΔR5BD (from UniProt Q15276) (domain or fragment)”, with “binds”.
